In patent US9440980B2, “Remedy for diabetes” (EA Pharma Co., Ltd., priority 2007, dated 2016):

How the values were obtained:
[1] = system: trimeric GTP-binding protein β subunit (Gβγ2-Myc); experiment: Gβ binding activity of each compound by inhibition of 3H-labeled Compound 1 binding (SPA); parameters: species or system human
Method: The insect cell Sf21 coexpressing the Gβ1, Gβ2, Gβ3, or Gβ4, and Myc-Gγ2 and 6×His-Gαi1 was prepared in the same manner as Example 19 (8) and stored in the frozen state at −80° C. Using the frozen insect cell Sf21 expressing the subtype Gβ1, Gβ2, Gβ3, or Gβ4, 2.5×10^8 cells were thawed, suspended in 4 ml of a lysis buffer, and centrifuged (10000 G, 20 minutes, 4° C.) to obtain a pellet. The pellet was suspended in 5 ml of an extraction buffer containing 1% sodium cholate (50 mM HEPES, pH 8.0, 3 mM MgCl2, 1 mM 2-mercaptoethanol, 10 μM GDP, 50 mM NaCl, 1% sodium cholate). The suspension was stirred at 4° C. for 1 hour to extract protein and centrifuged (100000 G, 20 minutes, 4° C.), whereby the supernatant was obtained as a Gβγ72-Myc extract solution.
The binding assay of the ^3H-labeled Compound 1 to each Gβγ2-Myc was carried out in the same manner as Example 21 except for adding 0.1% Triton X-100 to an RBA buffer and for changing plate size. […] The mixture was shaken for 1 hour and left at room temperature overnight, and the radioactivity was measured by Topcount. […]

[2] = system: PI3-kinase β (p110β/p85α); experiment: PI3-kinase subtype activity with or without Gβ1γ2-Myc (PIP3 production, 32P-ATP, TLC); assay type: biochemical; conditions: 30 μM; presence of Gβ1γ2-Myc; FIG. 13
[3] = target: phosphoinositide 3-kinase γ heterodimer (Homo sapiens, UniProt P48736); conditions: phosphatidylinositol substrate; presence of the trimeric GTP-binding protein β subunit; Bonacci et al.; cited from earlier work
[4] = system: PI3-kinase α (p110α/p85α); experiment: PI3-kinase subtype activity in the presence of Gβ1γ2-Myc (PIP3 production, 32P-ATP, TLC); assay type: biochemical; conditions: 30 μM, FIG. 13
isolated adipocytes = experiment: Measurement of glucose uptake activity in isolated rat adipocytes (2-[14C]-deoxy-D-glucose); assay type: cell-based
Method: A male Wistar rat was decapitated and exsanguinated, and then a paratesticular adipose tissue was resected therefrom after laparotomy. The tissue was cut in a KRH (Krebs-Ringer HEPES: 130 mM NaCl, 4.7 mM KCl, 1.2 mM KH2PO4, 1.2 mM MgSO4, 1 mM CaCl2, 25 mM HEPES) containing a BSA (bovine serum albumin), a collagenase (type I) was added thereto, and the resultant was subjected to a digestive treatment for about 40 minutes to obtain isolated adipocytes. The buffer was replaced to remove the collagenase, and a 2% BSA/KRH solution was added thereto, whereby the adipocytes were floated again to obtain a adipocytes suspension.
The glucose uptake activity of a test substance compound was evaluated in accordance with Non-Patent Document 14: Simpson et al., Annual Review of Biochemistry, 55, 1059, (1986). […] The glucose uptake activity was evaluated by measuring the amount of 2-[^14C(U)]-deoxy-D-glucose uptaken per unit time. […] Dinonyl phthalate was superposed over the solution, the resultant was centrifuged to separate the fat cells from the buffer, and the amount of the 2-[^14C(U)]-deoxy-D-glucose contained in the fat cell layer was measured by a liquid scintillation counter, whereby the uptaken glucose amount was determined. […]

[5] = system: Akt phosphorylation in human liver-derived HLF cell; conditions: HLF cells, 15 minutes treatment

## COc1cc2c(c(OC)c1OC)-c1ccc(OC)c(=O)cc1[C@@H](N)CC2 [N-deacetylcolchicine, reference compound]
[1]
  competition with the glucose uptake enhancer for binding to the trimeric GTP-binding protein β subunit: not competitive
[2]
  effect on PI3-kinase β activity: no effects
[3]
  effect on enzymatic activity of phosphoinositide 3-kinase γ heterodimer: enhances the enzymatic activity of phosphoinositide 3-kinase γ heterodimer
[4]
  effect on PI3-kinase α activity: no effects
Isolated adipocytes
  glucose uptake activity (in words): did not exhibit glucose uptake activity
[5]
  Akt phosphorylation activity (in words): did not exhibit Akt phosphorylation activity
